According to PMC4076271:
These are yes or no findings as the source states them, for the method shown. In cells and extracts the contact can be indirect. These calls come from enrichment with a bait or labelling near it, and not all partners need be listed. For some of these results: Tags and fused reporters may be left off the sequences shown.

Sequences of proteins named here, by UniProt entry; tags and fusion partners are left off.
UniProt P26651: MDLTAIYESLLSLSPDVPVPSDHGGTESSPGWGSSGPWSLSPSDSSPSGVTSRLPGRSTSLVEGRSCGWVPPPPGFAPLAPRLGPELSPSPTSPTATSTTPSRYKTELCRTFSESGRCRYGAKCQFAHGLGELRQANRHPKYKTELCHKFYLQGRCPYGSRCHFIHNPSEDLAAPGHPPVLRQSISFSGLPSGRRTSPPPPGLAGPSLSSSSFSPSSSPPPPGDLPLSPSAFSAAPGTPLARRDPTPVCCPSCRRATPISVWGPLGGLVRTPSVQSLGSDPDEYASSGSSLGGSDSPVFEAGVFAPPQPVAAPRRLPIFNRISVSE
UniProt P62258: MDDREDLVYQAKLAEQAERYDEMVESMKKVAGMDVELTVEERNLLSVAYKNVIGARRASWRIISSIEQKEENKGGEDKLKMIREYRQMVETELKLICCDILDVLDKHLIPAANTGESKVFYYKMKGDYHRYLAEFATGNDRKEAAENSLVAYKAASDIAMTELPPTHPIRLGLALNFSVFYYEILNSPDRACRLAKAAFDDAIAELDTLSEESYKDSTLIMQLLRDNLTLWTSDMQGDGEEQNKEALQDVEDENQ
UniProt P27708: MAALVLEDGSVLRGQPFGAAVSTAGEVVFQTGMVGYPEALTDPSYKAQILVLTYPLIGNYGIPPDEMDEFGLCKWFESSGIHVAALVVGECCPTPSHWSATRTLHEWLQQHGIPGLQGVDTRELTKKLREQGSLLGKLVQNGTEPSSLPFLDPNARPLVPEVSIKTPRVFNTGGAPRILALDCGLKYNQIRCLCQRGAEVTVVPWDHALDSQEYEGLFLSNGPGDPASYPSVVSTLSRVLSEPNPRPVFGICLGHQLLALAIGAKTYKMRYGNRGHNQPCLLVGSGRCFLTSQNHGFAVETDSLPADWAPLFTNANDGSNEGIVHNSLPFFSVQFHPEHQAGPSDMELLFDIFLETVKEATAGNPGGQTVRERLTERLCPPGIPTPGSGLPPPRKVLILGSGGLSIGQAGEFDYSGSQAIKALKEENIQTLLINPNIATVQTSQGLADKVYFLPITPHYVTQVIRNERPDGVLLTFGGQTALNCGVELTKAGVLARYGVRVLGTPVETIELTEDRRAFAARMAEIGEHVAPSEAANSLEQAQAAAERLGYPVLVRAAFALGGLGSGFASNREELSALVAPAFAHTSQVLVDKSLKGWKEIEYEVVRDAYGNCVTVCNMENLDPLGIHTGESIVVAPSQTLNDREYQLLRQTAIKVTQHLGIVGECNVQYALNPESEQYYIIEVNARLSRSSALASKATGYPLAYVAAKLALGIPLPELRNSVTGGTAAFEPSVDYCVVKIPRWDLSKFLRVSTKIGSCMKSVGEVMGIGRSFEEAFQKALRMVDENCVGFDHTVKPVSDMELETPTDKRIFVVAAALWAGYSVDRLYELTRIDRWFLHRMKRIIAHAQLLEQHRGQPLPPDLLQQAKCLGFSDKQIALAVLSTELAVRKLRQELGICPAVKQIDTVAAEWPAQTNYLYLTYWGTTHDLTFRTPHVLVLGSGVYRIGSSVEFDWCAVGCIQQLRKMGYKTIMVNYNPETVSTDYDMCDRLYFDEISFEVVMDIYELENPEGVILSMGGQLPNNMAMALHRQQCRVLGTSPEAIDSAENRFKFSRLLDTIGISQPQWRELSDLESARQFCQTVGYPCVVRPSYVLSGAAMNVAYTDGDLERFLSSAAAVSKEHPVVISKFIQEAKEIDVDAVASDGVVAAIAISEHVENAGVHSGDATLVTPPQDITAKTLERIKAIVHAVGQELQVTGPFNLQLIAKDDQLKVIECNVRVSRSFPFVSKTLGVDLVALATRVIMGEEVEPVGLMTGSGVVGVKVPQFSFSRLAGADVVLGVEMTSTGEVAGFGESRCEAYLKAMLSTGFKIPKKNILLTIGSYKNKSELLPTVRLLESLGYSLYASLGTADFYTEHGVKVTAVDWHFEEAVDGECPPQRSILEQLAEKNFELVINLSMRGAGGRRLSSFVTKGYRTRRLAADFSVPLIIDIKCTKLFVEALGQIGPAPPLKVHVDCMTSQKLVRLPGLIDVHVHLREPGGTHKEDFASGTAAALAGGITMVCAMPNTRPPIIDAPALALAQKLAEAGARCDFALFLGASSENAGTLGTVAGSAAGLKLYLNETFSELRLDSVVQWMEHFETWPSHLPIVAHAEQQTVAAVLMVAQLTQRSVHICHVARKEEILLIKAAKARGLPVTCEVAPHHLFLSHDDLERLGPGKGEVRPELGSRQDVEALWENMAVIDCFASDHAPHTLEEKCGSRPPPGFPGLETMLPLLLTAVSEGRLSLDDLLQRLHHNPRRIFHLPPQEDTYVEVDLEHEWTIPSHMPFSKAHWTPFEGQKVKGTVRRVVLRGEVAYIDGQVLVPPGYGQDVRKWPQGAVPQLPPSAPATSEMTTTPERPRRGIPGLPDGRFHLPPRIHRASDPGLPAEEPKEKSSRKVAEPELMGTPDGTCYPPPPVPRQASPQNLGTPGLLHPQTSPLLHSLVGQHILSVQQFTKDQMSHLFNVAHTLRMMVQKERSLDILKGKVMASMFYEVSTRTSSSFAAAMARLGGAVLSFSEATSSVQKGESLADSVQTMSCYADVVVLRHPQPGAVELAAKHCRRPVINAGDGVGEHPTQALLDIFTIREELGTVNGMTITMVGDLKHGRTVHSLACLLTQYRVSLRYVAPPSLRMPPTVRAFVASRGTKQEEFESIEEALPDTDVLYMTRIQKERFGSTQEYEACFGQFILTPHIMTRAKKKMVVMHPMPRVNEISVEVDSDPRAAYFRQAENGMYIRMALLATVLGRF

Legend:
[1] = target: Flag-tagged TTP (tristetraprolin) (UniProt P26651); assay: affinity purification with mass spectrometry; anti-Flag IP from RNase-treated extracts of stable T-REx HEK 293 lines expressing Flag-TTP or Flag-BRF1; SDS-PAGE, silver staining, mass spectrometry of individual gel bands
Flag-tagged BRF1 = target: T1, Flag-tagged BRF1 (UniProt Q07352); assay: as above
T1 sequence: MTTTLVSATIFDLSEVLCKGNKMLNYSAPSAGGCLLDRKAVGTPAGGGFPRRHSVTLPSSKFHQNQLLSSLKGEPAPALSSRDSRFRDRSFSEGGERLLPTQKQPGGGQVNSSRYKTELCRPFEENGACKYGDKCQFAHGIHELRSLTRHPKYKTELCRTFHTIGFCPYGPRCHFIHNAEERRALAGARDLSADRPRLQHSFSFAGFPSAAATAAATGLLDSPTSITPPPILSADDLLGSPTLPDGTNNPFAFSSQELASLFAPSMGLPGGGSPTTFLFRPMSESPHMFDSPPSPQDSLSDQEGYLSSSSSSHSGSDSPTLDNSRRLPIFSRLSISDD

| binding [1] | binding (Flag-tagged BRF1) | Substance |
| --- | --- | --- |
| binds | binds | 14-3-3ε, endogenous in HEK 293 cells (from UniProt P62258 1-255) |
| binds | binds | CAD (carbamoyl-phosphate synthetase 2, aspartate transcarbamylase, and dihydroorotase), endogenous in HEK 293 cells (from UniProt P27708 1-2225) |
